Measured data: PubChem BioAssay AID1259308 (NCATS, 2017)

Assay: 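Candidate targets for better recombinant protein yield in mammalian cells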 (primary screen)
System: human HEK293 embryonic kidney cells stably expressing firefly luciferase (HEK-CMV-Luc2-Hygro)
Knock-down reagent: single siRNA against human genes, 0.8 pmol siRNA per well
Timing: 72 h
Detection: 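Reporter luminescence and viable-cell signal on separate replicate plates, given as percent of non-targeting control and median/MAD z-scores, plus per-cell luciferase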
Direction: total luciferase, z-score and total luciferase, % of control: higher = more reporter protein produced
Rule for the call: 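An siRNA counts as active if its total luciferase robust z-score exceeds 3; genes with two or more such siRNAs out of three were retested with fresh siRNAs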
Meaning of the calls: active = raised luciferase; inactive = no rise
The whole screen tested about 59,000 reagents; below is a random part of them. About 1,510 of all reagents (2.6%) count as active. 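Calls use total luciferase alone and ignore viability, so some active siRNAs may act by altering cell number.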 The numbers tell different reagents against one gene apart. Not all columns of the deposit are shown.

The first 7 records, ahead of the listing:
no.	Target gene	reagent no.	total luciferase, z-score	total luciferase, % of control	Call
1	SLC26A7	1	2.94	140	inactive
2	SLC26A7	2	-1.61	50	inactive
3	SLC26A7	3	1.12	104	inactive
4	PADI3	1	-0.36	74.7	inactive
5	PADI3	2	-0.611	69.7	inactive
6	PADI3	3	1.05	103	inactive
7	TSR2	1	-0.876	64.5	inactive

Results, from the first entry:
no.	Target gene	reagent no.	total luciferase, z-score	total luciferase, % of control	Call
1	SLC26A7	1	2.94	140	inactive
2	SLC26A7	2	-1.61	50	inactive
3	SLC26A7	3	1.12	104	inactive
4	PADI3	1	-0.36	74.7	inactive
5	PADI3	2	-0.611	69.7	inactive
6	PADI3	3	1.05	103	inactive
7	TSR2	1	-0.876	64.5	inactive
8	TSR2	2	-0.962	62.7	inactive
9	TSR2	3	0.178	85.4	inactive
10	WWC2-AS2	1	0.944	101	inactive
11	WWC2-AS2	2	-1.28	56.4	inactive
12	WWC2-AS2	3	-1.44	53.3	inactive
13	PIERCE1	1	0.214	86.1	inactive
14	PIERCE1	2	0.362	89.1	inactive
15	PIERCE1	3	0.047	82.8	inactive
16	NECTIN1	1	-0.288	76.2	inactive
17	NECTIN1	2	0.301	87.9	inactive
18	NECTIN1	3	-0.793	66.1	inactive
19	EXOC3L1	1	-1.31	55.7	inactive
20	EXOC3L1	2	0.0341	82.6	inactive
21	EXOC3L1	3	-0.441	73.1	inactive
22	SSBP2	1	0.17	85.3	inactive
23	SSBP2	2	0.34	88.7	inactive
24	SSBP2	3	-0.819	65.6	inactive
25	HTR4	1	-0.322	75.5	inactive
26	HTR4	2	1.17	105	inactive
27	HTR4	3	-0.197	78	inactive
28	ZNF823	1	0.101	83.9	inactive
29	ZNF823	2	-0.594	70.1	inactive
30	ZNF823	3	-0.158	78.7	inactive
31	PSMD5	1	0.539	92.6	inactive
32	PSMD5	2	1.1	104	inactive
33	PSMD5	3	-0.175	78.4	inactive
34	TEKT3	1	2.47	131	inactive
35	TEKT3	2	-2.01	41.9	inactive
36	TEKT3	3	-1.19	58.2	inactive
37	GPN3	1	-0.828	65.4	inactive
38	GPN3	2	0.136	84.6	inactive
39	GPN3	3	-1.21	57.8	inactive
40	HASPIN	1	1.84	119	inactive
41	HASPIN	2	0.869	99.2	inactive
42	HASPIN	3	-0.552	70.9	inactive
43	LINC01098	1	-0.481	72.3	inactive
44	LINC01098	2	-0.279	76.3	inactive
45	LINC01098	3	0.172	85.3	inactive
46	GEN1	1	0.0501	82.9	inactive
47	GEN1	2	-1.39	54.2	inactive
48	GEN1	3	-1.12	59.5	inactive
49	GEN1	4	0.0143	82.2	inactive
50	GEN1	5	-1.66	48.8	inactive
51	GEN1	6	0.8	97.8	inactive
52	SFRP2	1	-0.193	78.1	inactive
53	SFRP2	2	0.981	101	inactive
54	SFRP2	3	0.522	92.3	inactive
55	MAP3K8	1	-0.72	67.6	inactive
56	MAP3K8	2	2.59	133	inactive
57	MAP3K8	3	-1.66	48.9	inactive
58	MMP17	1	-0.277	76.4	inactive
59	MMP17	2	-0.731	67.3	inactive
60	MMP17	3	1.02	102	inactive
61	ELP1	1	-0.642	69.1	inactive
62	ELP1	2	1.26	107	inactive
63	ELP1	3	0.331	88.5	inactive
64	LRRTM3	1	0.31	88.1	inactive
65	LRRTM3	2	-0.899	64	inactive
66	LRRTM3	3	-0.474	72.5	inactive
67	OR5AU1	1	0.49	91.6	inactive
68	OR5AU1	2	-3.36	15	inactive
69	OR5AU1	3	1.64	115	inactive
70	APCDD1	1	0.433	90.5	inactive
71	APCDD1	2	-1.59	50.3	inactive
72	APCDD1	3	-0.561	70.7	inactive
73	LINC00326	1	0.405	89.9	inactive
74	LINC00326	2	-0.115	79.6	inactive
75	LINC00326	3	-0.163	78.6	inactive
